Laboratory results taken from patent US20070059829A1.
Results are given in words; binding and its absence hold for the method and conditions named. Binding seen in cells or lysates may run through a third protein. Some results given as binding are weak or reduced against the parent protein; the word gives no strength. For some of these results: Where a sequence is shown, tags or fusion partners need not be part of it.

Sequences of proteins named here, by UniProt entry; tags and fusion partners are left off. A change or cut given only in a name is not applied to a line headed by its entry. Residues count along the entry.
UniProt O75581, residues 20-1370: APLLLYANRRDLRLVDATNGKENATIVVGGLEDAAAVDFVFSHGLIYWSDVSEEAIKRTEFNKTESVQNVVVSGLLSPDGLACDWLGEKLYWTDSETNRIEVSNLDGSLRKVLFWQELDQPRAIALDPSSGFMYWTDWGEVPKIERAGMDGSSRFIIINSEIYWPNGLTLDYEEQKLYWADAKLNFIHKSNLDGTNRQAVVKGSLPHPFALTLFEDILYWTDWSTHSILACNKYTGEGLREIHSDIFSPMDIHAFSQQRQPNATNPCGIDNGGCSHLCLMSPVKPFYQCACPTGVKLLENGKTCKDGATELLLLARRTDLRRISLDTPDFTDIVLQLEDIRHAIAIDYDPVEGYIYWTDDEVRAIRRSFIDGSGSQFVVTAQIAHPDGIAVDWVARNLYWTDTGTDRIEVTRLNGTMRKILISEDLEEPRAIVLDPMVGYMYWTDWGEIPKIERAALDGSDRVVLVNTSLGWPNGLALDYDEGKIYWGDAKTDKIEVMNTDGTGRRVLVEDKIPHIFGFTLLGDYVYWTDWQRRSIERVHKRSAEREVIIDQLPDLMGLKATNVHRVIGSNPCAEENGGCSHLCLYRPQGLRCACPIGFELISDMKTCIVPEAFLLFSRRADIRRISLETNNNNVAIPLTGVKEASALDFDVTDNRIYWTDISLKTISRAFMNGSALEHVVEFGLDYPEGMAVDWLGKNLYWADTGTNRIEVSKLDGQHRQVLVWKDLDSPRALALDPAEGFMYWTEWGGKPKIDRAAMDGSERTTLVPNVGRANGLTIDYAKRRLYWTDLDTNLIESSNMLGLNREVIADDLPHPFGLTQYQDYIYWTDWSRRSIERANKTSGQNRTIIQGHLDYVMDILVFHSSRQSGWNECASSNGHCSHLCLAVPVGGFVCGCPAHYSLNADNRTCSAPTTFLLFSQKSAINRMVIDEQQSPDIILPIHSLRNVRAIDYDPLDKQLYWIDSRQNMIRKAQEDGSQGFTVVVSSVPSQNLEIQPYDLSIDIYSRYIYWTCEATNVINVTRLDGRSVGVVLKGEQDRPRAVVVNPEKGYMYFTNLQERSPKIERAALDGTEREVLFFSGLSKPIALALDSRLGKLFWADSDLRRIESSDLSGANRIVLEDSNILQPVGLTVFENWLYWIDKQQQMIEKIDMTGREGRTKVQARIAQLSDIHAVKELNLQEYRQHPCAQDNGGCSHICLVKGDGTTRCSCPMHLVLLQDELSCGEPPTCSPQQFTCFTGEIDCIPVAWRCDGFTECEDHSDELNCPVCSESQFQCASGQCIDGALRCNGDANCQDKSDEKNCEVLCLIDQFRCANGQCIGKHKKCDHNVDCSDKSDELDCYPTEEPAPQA
UniProt Q9Z132: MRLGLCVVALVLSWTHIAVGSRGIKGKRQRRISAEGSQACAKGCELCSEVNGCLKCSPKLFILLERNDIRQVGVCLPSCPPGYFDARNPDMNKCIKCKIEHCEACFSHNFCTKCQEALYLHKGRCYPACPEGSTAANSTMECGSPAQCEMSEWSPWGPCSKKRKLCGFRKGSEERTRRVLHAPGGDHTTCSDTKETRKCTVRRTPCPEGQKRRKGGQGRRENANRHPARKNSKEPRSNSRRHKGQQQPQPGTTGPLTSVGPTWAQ

Legend:
[1] = target: human immunoglobin Fc fusion form of the extracellular domain of human LRP6 (human) (UniProt O75581); test: cell-free pull-down (FIG. 6B legend)
[2] = target: T1, human immunoglobin Fc fusion form of the cysteine-rich domain (CRD) of mouse Fzd8 (mouse; human) (UniProt Q61091); test: cell-free pull-down (FIG. 6B legend)
T1 sequence (looked up): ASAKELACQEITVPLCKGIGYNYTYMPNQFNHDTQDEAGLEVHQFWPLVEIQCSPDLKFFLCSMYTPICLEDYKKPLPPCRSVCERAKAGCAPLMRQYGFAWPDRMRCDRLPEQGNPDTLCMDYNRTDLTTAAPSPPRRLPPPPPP

[3] = target: human immunoglobin Fc fusion form of the extracellular domain of human LRP6 (human) (UniProt O75581); test: cell-free pull-down on protein A-sepharose beads, western blot
[4] = target: T1, human immunoglobin Fc fusion form of the cysteine-rich domain (CRD) of mouse Fzd8 (mouse; human); test: as above

Measured: binding

Histidine-tagged R-spondin1 protein (from UniProt Q9Z132 21-265) (ligand)
binds: all assays above
